# Source: patent US20050032696A1
# No constants are given. Whether binding was seen depends on the method and setting. For some of these results: Binding seen in cells or lysates may run through a third protein. Some binding calls cover weakened binding; strength is not graded here. For some of these results: Where a sequence is shown, tags or fusion partners need not be part of it.
# T1: GST-NCoR1649-2453 (UniProt Q60974)
# T1 sequence (looked up): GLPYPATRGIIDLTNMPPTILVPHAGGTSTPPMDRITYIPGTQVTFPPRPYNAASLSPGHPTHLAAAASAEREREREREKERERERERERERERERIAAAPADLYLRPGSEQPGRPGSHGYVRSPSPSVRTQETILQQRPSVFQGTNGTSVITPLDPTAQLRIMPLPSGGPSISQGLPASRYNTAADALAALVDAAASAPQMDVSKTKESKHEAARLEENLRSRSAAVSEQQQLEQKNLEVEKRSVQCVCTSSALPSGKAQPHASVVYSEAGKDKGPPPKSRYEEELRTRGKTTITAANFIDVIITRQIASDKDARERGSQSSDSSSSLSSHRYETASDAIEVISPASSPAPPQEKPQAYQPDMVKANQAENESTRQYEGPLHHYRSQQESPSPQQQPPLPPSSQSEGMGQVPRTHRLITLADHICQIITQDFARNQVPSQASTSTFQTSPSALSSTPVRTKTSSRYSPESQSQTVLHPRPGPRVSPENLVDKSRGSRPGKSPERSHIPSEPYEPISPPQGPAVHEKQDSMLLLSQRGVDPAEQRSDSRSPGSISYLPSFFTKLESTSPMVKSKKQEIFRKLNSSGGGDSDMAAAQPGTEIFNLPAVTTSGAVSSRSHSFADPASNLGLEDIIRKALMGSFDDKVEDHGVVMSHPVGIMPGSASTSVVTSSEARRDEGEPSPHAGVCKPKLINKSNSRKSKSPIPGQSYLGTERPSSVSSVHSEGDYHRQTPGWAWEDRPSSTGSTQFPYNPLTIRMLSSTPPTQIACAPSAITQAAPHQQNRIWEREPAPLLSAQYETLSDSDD
# T2: wild-type (wt) hMusTRD1α1, full length (human) (UniProt Q9UHL9)
# T2 sequence: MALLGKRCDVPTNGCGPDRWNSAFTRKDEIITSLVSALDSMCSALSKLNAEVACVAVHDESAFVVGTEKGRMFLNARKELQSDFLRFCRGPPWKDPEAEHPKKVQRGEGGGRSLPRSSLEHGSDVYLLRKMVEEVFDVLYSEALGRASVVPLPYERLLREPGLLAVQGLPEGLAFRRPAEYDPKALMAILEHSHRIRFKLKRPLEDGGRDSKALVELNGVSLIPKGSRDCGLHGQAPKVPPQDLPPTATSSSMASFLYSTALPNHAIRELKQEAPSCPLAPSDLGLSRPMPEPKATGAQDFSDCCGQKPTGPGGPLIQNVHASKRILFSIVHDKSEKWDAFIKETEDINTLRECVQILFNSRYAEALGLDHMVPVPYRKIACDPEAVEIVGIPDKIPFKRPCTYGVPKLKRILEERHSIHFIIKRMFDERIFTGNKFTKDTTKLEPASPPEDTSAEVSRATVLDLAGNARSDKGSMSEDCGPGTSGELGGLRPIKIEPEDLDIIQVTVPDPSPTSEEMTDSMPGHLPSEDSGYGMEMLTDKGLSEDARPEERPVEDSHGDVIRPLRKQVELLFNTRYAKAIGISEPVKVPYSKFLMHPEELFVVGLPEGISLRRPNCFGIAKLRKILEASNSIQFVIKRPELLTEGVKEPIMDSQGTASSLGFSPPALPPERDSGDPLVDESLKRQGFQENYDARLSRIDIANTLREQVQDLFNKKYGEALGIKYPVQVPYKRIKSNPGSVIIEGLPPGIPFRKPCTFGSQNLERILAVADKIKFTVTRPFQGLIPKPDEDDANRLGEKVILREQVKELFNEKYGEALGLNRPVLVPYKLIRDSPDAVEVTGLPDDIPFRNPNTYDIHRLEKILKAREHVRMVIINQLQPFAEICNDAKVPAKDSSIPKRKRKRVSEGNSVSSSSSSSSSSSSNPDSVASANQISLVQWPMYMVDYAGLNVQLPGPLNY
# Key:
# GST-NCoR1649-2453 = molecular target: T1, GST-NCoR1649-2453; assay: GST pull-down, phosphorimaging (data not shown)
# [1] = molecular target: full length NCoR (pCMXNCoR, entire mouse NCoR cDNA) (mouse) (UniProt Q60974); assay: co-immunoprecipitation from transfected Cos-7 cells with anti-NCoR antibody, anti-c-myc Western blot (data not shown)
# [2] = molecular target: T2, wild-type (wt) hMusTRD1α1, full length (human); assay: yeast two-hybrid mating assay, β-galactosidase reporter
binder,measurement,setting,value
"hMusTRD1α1350aa (pcDNA3.1hMusTRD1α1350myc/his) (protein, not shown: small tags and cut ends) MALLGKRCDVPTNGCGPDRWNSAFTRKDEIITSLVSALDSMCSALSKLNAEVACVAVHDESAFVVGTEKGRMFLNARKELQSDFLRFCRGPPWKDPEAEHPKKVQRGEGGGRSLPRSSLEHGSDVYLLRKMVEEVFDVLYSEALGRASVVPLPYERLLREPGLLAVQGLPEGLAFRRPAEYDPKALMAILEHSHRIRFKLKRPLEDGGRDSKALVELNGVSLIPKGSRDCGLHGQAPKVPPQDLPPTATSSSMASFLYSTALPNHAIRELKQEAPSCPLAPSDLGLSRPMPEPKATGAQDFSDCCGQKPTGPGGPLIQNVHASKRILFSIVHDKSEKWDAFIKETEDINT",binding,GST-NCoR1649-2453,binds
same,binding,[1],binds
"wild-type (wt) hMusTRD1α1, full length (protein) MALLGKRCDVPTNGCGPDRWNSAFTRKDEIITSLVSALDSMCSALSKLNAEVACVAVHDESAFVVGTEKGRMFLNARKELQSDFLRFCRGPPWKDPEAEHPKKVQRGEGGGRSLPRSSLEHGSDVYLLRKMVEEVFDVLYSEALGRASVVPLPYERLLREPGLLAVQGLPEGLAFRRPAEYDPKALMAILEHSHRIRFKLKRPLEDGGRDSKALVELNGVSLIPKGSRDCGLHGQAPKVPPQDLPPTATSSSMASFLYSTALPNHAIRELKQEAPSCPLAPSDLGLSRPMPEPKATGAQDFSDCCGQKPTGPGGPLIQNVHASKRILFSIVHDKSEKWDAFIKETEDINTLRECVQILFNSRYAEALGLDHMVPVPYRKIACDPEAVEIVGIPDKIPFKRPCTYGVPKLKRILEERHSIHFIIKRMFDERIFTGNKFTKDTTKLEPASPPEDTSAEVSRATVLDLAGNARSDKGSMSEDCGPGTSGELGGLRPIKIEPEDLDIIQVTVPDPSPTSEEMTDSMPGHLPSEDSGYGMEMLTDKGLSEDARPEERPVEDSHGDVIRPLRKQVELLFNTRYAKAIGISEPVKVPYSKFLMHPEELFVVGLPEGISLRRPNCFGIAKLRKILEASNSIQFVIKRPELLTEGVKEPIMDSQGTASSLGFSPPALPPERDSGDPLVDESLKRQGFQENYDARLSRIDIANTLREQVQDLFNKKYGEALGIKYPVQVPYKRIKSNPGSVIIEGLPPGIPFRKPCTFGSQNLERILAVADKIKFTVTRPFQGLIPKPDEDDANRLGEKVILREQVKELFNEKYGEALGLNRPVLVPYKLIRDSPDAVEVTGLPDDIPFRNPNTYDIHRLEKILKAREHVRMVIINQLQPFAEICNDAKVPAKDSSIPKRKRKRVSEGNSVSSSSSSSSSSSSNPDSVASANQISLVQWPMYMVDYAGLNVQLPGPLNY",binding,[2],binds
"ΔhMusTRD1α1 (truncated human MusTRD1α1, amino acids 1-458) (protein) MALLGKRCDVPTNGCGPDRWNSAFTRKDEIITSLVSALDSMCSALSKLNAEVACVAVHDESAFVVGTEKGRMFLNARKELQSDFLRFCRGPPWKDPEAEHPKKVQRGEGGGRSLPRSSLEHGSDVYLLRKMVEEVFDVLYSEALGRASVVPLPYERLLREPGLLAVQGLPEGLAFRRPAEYDPKALMAILEHSHRIRFKLKRPLEDGGRDSKALVELNGVSLIPKGSRDCGLHGQAPKVPPQDLPPTATSSSMASFLYSTALPNHAIRELKQEAPSCPLAPSDLGLSRPMPEPKATGAQDFSDCCGQKPTGPGGPLIQNVHASKRILFSIVHDKSEKWDAFIKETEDINTLRECVQILFNSRYAEALGLDHMVPVPYRKIACDPEAVEIVGIPDKIPFKRPCTYGVPKLKRILEERHSIHFIIKRMFDERIFTGNKFTKDTTKLEPASPPEDTSAEVS",binding,[2],binds
